Results: patent publication EP2394998A1, “3-(5-Amino-6-oxo-1,6-dihydropyridazin-3-yl)-biphenyl derivatives as PDE4 inhibitors” (Almirall, S.A., priority 2010, dated 2011)
For at least one compound, name, drawing or mass did not settle the structure.

Target: recombinant PDE4 enzyme
Experiment: PDE4 assay: [3H] cAMP Scintillation Proximity Assay (SPA) of phosphodiesterase activity
Type: biochemical
Settings: yeast extract of recombinant PDE4 enzyme; 30 nM [3H] cAMP; 1 h at room temperature; pH 7.5
Experimental: Measurement of Phosphodiesterase Activity was done using a [3H] cAMP Scintillation Proximity Assay (SPA) (GE Healthcare). Compounds to be tested were disolved in dimethylsulfoxide (DMSO) at a stock concentration of 1 mM and serial dilutions were prepared in 50% DMSO to determine IC50s.
The reactions were conducted in 96-well plates (Corning, Ref.3604) at room temperature, in 0.1 mL of reaction buffer containing (final concentrations): 50 mM Tris-HCl, pH 7.5, 8.3 mM MgCl2, 1.7 mM EGTA, 30 nM [3H] cAMP (approximately 150000 dpm/well) with or without the inhibitors. The reaction was initiated by adding yeast extract of recombinant PDE4 enzyme.
Plates were shaken for 1 h at room temperature and the incubation was terminated by adding 50 µL (0.5 mg /well) of SPA ytrium silicate beads (RPNQ 0150; GE Healthcare) in the presence of zinc sulfate. Plates were stored overnight in the dark and read on a TRILUX microtiter plate reader (Perkin Elmer).

Compound: CCn1nc(-c2cccc(-c3cccc(C(N)=O)c3)c2)cc(Nc2cccc3ncccc23)c1=O [Example 4, 3'-[1-ethyl-6-oxo-5-(quinolin-5-ylamino)-1,6-dihydropyridazin-3-yl]biphenyl-3-carboxamide]
- IC50: 0.037 nM
